Data taken from the supplement of paper PMC12819154, “High-throughput peptide-centric local stability assay extends protein–ligand identification to membrane proteins, tissues and bacteria” (Nature Structural & Molecular Biology, 2025).
The list shows a part of the results. Most entries show no effect beyond the scatter of the controls.

The chains behind the UniProt entries cited, without tags or fusion partners. Where a name states a change or a piece, a line headed by the entry shows the natural chain unless it says otherwise.
UniProt Q8TCD5: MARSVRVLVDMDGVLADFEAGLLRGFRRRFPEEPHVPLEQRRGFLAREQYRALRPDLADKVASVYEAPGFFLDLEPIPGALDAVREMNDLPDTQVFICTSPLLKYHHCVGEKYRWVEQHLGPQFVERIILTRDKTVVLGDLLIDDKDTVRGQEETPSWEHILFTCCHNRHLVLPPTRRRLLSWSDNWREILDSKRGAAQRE
UniProt Q8TE49: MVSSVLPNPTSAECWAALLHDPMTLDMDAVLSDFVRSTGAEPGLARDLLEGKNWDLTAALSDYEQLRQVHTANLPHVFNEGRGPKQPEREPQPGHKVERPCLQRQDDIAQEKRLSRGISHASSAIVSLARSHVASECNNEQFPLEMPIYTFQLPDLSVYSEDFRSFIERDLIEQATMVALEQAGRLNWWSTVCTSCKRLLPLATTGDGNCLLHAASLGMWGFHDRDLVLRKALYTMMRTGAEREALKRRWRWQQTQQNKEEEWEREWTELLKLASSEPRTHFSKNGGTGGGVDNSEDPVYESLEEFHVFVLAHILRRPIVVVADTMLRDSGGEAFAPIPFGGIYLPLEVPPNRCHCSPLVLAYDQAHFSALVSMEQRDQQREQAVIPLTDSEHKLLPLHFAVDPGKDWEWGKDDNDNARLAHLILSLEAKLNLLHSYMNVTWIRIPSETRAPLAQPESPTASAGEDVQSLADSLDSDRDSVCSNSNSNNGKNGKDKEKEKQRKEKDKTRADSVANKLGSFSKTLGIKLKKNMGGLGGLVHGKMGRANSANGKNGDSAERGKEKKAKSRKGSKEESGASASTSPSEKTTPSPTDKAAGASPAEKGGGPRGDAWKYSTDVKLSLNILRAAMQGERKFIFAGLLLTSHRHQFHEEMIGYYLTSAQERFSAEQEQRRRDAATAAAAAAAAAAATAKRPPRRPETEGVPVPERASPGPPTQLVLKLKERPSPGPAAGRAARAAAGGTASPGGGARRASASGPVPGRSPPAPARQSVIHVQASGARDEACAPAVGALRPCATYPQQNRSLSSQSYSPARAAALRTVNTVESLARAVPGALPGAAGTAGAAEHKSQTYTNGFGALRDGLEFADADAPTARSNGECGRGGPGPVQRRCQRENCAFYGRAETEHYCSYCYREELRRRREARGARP
UniProt Q8WV22: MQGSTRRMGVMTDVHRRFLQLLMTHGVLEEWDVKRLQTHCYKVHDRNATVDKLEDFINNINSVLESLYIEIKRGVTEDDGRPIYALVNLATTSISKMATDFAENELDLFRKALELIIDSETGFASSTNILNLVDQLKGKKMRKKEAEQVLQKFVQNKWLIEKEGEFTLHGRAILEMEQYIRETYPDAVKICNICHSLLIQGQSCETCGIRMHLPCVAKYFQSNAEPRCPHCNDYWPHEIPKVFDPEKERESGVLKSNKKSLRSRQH
UniProt Q8WYP5: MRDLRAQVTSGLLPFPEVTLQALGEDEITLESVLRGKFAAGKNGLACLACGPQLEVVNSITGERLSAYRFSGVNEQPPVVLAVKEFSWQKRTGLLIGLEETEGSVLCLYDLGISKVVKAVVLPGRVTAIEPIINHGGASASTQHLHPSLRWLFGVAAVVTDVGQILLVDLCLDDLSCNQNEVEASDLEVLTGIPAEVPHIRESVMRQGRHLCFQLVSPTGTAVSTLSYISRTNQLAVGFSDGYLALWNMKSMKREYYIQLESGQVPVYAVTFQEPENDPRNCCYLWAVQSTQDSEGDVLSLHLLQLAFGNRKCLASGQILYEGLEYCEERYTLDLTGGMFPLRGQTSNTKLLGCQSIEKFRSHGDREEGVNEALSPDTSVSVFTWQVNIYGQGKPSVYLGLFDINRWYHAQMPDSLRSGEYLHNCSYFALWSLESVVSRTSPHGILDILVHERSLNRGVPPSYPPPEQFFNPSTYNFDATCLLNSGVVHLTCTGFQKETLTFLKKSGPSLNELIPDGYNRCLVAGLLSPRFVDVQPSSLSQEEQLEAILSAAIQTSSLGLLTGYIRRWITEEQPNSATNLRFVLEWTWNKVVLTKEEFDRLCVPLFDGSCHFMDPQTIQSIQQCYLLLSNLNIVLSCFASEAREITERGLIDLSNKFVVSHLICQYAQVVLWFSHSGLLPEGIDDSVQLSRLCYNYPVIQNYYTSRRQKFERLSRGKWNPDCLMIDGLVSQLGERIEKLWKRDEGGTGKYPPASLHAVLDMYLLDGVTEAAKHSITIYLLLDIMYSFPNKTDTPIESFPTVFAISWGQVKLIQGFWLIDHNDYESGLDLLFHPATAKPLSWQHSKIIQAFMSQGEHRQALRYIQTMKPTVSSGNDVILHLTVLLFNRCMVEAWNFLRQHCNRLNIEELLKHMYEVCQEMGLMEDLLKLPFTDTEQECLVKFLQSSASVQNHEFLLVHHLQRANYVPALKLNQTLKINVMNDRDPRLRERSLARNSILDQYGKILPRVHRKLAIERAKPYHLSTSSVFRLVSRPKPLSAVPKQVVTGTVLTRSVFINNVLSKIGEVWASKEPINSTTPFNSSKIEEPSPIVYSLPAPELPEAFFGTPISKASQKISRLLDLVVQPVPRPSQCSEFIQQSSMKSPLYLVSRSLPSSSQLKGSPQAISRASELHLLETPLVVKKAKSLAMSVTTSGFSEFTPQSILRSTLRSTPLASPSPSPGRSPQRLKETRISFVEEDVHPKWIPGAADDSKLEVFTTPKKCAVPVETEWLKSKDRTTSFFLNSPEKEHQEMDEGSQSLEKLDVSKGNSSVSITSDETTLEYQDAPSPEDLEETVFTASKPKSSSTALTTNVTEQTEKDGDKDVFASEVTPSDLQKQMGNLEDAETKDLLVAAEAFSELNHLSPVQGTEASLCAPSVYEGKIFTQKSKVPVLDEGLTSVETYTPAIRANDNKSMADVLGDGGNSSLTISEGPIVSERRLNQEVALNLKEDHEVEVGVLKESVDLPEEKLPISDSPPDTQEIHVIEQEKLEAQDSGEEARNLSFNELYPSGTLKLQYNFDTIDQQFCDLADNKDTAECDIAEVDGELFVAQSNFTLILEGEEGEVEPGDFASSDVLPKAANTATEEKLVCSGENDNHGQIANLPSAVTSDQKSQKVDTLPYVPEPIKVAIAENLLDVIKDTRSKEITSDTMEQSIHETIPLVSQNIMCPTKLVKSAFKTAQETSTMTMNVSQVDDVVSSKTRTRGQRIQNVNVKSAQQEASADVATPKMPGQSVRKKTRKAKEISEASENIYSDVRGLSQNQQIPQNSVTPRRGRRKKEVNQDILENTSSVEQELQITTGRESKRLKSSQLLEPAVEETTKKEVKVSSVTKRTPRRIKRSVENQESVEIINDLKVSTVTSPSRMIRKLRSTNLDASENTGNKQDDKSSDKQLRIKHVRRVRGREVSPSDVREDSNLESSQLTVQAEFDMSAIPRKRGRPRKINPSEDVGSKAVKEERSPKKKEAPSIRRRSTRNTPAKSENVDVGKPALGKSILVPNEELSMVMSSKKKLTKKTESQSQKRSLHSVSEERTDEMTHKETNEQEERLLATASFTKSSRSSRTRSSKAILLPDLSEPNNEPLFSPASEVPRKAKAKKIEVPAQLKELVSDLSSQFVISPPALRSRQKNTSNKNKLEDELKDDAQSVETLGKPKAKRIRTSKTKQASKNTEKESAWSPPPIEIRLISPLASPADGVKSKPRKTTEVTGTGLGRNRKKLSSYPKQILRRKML
UniProt Q92613: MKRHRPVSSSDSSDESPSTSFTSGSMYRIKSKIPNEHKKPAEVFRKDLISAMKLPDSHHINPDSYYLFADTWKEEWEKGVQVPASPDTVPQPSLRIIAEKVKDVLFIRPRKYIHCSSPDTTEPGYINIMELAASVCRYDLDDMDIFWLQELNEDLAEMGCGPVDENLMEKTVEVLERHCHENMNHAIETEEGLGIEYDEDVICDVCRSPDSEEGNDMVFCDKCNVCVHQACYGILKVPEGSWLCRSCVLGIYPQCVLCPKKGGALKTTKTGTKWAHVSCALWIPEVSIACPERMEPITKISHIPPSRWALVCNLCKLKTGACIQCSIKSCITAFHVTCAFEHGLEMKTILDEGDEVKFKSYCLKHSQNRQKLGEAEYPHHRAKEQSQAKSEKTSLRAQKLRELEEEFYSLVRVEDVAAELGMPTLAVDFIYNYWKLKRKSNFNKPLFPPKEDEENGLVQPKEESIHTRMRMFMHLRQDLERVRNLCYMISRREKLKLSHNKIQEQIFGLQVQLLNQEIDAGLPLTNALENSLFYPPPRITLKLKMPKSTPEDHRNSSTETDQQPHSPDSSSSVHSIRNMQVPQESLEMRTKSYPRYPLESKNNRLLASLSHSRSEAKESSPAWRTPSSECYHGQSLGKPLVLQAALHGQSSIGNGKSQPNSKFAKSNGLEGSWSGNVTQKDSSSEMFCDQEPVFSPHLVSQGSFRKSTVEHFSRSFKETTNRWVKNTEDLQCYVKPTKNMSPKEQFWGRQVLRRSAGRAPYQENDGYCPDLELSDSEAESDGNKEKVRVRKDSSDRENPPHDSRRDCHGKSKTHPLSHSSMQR
UniProt Q8NI77: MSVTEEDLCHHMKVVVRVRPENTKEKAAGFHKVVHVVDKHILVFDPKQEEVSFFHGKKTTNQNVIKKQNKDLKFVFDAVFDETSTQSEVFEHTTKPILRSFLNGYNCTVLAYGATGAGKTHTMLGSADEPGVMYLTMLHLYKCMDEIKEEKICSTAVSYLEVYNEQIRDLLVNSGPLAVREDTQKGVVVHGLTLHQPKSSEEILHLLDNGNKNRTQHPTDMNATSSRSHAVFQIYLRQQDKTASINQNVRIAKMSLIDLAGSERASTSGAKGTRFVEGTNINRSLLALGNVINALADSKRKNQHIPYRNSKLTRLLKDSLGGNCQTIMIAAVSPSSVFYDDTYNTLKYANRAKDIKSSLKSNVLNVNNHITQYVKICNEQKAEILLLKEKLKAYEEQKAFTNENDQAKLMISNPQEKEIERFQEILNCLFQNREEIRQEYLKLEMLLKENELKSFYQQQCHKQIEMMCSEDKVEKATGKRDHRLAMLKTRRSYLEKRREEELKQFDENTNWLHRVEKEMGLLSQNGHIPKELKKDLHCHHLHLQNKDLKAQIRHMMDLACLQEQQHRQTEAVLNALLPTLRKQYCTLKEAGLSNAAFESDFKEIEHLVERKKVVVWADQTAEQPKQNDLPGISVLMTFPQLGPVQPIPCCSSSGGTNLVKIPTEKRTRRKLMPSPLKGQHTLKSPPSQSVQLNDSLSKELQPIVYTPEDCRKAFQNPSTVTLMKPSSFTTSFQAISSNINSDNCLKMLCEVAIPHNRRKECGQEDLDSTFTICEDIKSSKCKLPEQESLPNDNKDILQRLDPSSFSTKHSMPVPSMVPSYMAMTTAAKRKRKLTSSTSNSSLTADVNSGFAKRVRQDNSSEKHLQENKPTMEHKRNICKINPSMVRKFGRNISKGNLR
UniProt Q8TB05: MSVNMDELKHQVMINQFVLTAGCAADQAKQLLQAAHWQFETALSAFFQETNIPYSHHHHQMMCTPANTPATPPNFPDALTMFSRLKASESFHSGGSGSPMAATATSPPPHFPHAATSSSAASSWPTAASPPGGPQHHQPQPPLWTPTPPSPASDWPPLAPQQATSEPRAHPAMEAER
UniProt Q8TCS8: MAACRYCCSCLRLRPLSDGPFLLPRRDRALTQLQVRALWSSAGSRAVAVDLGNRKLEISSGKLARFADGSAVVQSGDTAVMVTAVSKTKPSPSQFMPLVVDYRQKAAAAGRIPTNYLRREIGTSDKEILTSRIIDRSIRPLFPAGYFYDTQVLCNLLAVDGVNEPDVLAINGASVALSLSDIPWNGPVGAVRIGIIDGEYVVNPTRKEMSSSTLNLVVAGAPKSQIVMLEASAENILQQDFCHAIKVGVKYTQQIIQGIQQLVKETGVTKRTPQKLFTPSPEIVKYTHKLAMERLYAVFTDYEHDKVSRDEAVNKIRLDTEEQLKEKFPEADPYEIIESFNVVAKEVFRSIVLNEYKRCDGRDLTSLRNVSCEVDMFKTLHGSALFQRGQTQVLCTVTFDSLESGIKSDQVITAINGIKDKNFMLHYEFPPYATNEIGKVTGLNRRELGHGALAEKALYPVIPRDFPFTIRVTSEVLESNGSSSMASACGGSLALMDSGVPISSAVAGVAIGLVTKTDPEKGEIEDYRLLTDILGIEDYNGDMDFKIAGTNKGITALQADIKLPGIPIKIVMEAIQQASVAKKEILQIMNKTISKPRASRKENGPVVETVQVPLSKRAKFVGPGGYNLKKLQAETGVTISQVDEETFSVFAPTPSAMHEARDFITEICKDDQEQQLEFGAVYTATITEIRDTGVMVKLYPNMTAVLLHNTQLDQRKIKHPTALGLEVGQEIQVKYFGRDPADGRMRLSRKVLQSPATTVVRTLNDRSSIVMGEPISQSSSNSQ
UniProt Q8TDH9: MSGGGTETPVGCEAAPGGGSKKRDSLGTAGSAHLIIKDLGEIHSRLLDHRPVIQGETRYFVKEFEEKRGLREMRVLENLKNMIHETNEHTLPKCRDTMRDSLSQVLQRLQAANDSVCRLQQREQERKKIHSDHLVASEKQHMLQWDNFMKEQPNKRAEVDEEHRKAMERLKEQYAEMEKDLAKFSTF

Compound: Cc1nc(Nc2ncc(C(=O)Nc3c(C)cccc3Cl)s2)cc(N2CCN(CCO)CC2)n1 [dasatinib]
Assay: log2 fold change of tryptic peptide abundance, ligand vs vehicle (limited proteolysis) (log2 ratio); higher = more trypsin-susceptible (destabilized)
Conditions: ligand concentration: 5 uM; sample: K562 cleared lysate

| Target | log2 fold change |
| --- | --- |
| UniProt Q8WTP8 (peptide sequence: GGAREAQDR, peptide start residue: 315) | 0.129 |
| NT5C (peptide sequence: LLSWSDNWR, peptide start residue: 180) (UniProt Q8TCD5) | 0.177 |
| UniProt Q8TE49 (peptide sequence: RPIVVVADTMLR, peptide start residue: 308) | 0.0157 |
| NSMCE1 (peptide sequence: LQTHCYK, peptide start residue: 36) (UniProt Q8WV22) | -0.211 |
| UniProt Q8WWC4 (peptide sequence: EFTQGVKPDWTIAR, peptide start residue: 270) | -0.101 |
| UniProt Q8TF32 (peptide sequence: YGVYPLKEASGCPGAER, peptide start residue: 6) | -0.512 |
| IP6K1 (peptide sequence: GVLLEPFIHQVGGHSSMMR, peptide start residue: 23) (UniProt Q92551) | 0.221 |
| SMARCC2 (peptide sequence: VEGQATDEKKEPK, peptide start residue: 761) (UniProt Q8TAQ2) | 0.0885 |
| EPS8L1 (peptide sequence: VSELEAVMEK, peptide start residue: 700) (UniProt Q8TE68) | 0.433 |
| AHCTF1 (peptide sequence: KTTEVTGTGLGR, peptide start residue: 2237) (UniProt Q8WYP5) | 0.611 |
| UniProt Q8TAM2 (peptide sequence: SEAAFPDHVDTQHLIK, peptide start residue: 517) | 0.0179 |
| UBXN4 (peptide sequence: EMLDYKR, peptide start residue: 234) (UniProt Q92575) | 0.235 |
| PI4K2B (peptide sequence: KFEADPLPENIRK, peptide start residue: 272) (UniProt Q8TCG2) | -0.153 |
| JADE3 (peptide sequence: NTEDLQCYVKPTK, peptide start residue: 726) (UniProt Q92613) | 0.28 |
| UBE2Q2 (peptide sequence: FLASIFDKNHER, peptide start residue: 12) (UniProt Q8WVN8) | 0.302 |
| UniProt Q8TAP9 (peptide sequence: DGYGSPHHTPPYGPR, peptide start residue: 43) | -0.0952 |
| KIF18A (peptide sequence: ELQPIVYTPEDCRK, peptide start residue: 699) (UniProt Q8NI77) | 0.407 |
| GPT2 (peptide sequence: VKDFHINFLEK, peptide start residue: 511) (UniProt Q8TD30) | 0.137 |
| UniProt Q8TB05 (peptide sequence: AHPAMEAER, peptide start residue: 169) | -0.0358 |
| PNPT1 (peptide sequence: KVLQSPATTVVR, peptide start residue: 750) (UniProt Q8TCS8) | 0.181 |
| RFESD (peptide sequence: MTAVVHDR, peptide start residue: 32) (UniProt Q8TAC1) | -0.183 |
| TMEM131 (peptide sequence: KQEEKEK, peptide start residue: 1396) (UniProt Q92545) | 0.221 |
| FAR1 (peptide sequence: LIGDRPNTYIYTK, peptide start residue: 196) (UniProt Q8WVX9) | 0.17 |
| UniProt Q8TF20 (peptide sequence: SFGWSTNLNEYKK, peptide start residue: 721) | -0.177 |
| UniProt Q8TDH9 (peptide sequence: LKEQYAEMEK, peptide start residue: 170) | -0.321 |
| UniProt Q8WXA9 (peptide sequence: VREAQSFISAAIEPESGK, peptide start residue: 166) | 0.119 |

2 entries from above, reformatted:
Target | log2 fold change
NSMCE1 (peptide sequence: LQTHCYK, peptide start residue: 36) (UniProt Q8WV22) | -0.211
UniProt Q8WWC4 (peptide sequence: EFTQGVKPDWTIAR, peptide start residue: 270) | -0.101
